# Test results: patent publication US20250003974
# Protein sequences, listed by entry. Tags and fused reporters are not part of them. Lines headed by an entry give the natural chain unless they say otherwise; changes in a name come on top.
# UniProt O75417: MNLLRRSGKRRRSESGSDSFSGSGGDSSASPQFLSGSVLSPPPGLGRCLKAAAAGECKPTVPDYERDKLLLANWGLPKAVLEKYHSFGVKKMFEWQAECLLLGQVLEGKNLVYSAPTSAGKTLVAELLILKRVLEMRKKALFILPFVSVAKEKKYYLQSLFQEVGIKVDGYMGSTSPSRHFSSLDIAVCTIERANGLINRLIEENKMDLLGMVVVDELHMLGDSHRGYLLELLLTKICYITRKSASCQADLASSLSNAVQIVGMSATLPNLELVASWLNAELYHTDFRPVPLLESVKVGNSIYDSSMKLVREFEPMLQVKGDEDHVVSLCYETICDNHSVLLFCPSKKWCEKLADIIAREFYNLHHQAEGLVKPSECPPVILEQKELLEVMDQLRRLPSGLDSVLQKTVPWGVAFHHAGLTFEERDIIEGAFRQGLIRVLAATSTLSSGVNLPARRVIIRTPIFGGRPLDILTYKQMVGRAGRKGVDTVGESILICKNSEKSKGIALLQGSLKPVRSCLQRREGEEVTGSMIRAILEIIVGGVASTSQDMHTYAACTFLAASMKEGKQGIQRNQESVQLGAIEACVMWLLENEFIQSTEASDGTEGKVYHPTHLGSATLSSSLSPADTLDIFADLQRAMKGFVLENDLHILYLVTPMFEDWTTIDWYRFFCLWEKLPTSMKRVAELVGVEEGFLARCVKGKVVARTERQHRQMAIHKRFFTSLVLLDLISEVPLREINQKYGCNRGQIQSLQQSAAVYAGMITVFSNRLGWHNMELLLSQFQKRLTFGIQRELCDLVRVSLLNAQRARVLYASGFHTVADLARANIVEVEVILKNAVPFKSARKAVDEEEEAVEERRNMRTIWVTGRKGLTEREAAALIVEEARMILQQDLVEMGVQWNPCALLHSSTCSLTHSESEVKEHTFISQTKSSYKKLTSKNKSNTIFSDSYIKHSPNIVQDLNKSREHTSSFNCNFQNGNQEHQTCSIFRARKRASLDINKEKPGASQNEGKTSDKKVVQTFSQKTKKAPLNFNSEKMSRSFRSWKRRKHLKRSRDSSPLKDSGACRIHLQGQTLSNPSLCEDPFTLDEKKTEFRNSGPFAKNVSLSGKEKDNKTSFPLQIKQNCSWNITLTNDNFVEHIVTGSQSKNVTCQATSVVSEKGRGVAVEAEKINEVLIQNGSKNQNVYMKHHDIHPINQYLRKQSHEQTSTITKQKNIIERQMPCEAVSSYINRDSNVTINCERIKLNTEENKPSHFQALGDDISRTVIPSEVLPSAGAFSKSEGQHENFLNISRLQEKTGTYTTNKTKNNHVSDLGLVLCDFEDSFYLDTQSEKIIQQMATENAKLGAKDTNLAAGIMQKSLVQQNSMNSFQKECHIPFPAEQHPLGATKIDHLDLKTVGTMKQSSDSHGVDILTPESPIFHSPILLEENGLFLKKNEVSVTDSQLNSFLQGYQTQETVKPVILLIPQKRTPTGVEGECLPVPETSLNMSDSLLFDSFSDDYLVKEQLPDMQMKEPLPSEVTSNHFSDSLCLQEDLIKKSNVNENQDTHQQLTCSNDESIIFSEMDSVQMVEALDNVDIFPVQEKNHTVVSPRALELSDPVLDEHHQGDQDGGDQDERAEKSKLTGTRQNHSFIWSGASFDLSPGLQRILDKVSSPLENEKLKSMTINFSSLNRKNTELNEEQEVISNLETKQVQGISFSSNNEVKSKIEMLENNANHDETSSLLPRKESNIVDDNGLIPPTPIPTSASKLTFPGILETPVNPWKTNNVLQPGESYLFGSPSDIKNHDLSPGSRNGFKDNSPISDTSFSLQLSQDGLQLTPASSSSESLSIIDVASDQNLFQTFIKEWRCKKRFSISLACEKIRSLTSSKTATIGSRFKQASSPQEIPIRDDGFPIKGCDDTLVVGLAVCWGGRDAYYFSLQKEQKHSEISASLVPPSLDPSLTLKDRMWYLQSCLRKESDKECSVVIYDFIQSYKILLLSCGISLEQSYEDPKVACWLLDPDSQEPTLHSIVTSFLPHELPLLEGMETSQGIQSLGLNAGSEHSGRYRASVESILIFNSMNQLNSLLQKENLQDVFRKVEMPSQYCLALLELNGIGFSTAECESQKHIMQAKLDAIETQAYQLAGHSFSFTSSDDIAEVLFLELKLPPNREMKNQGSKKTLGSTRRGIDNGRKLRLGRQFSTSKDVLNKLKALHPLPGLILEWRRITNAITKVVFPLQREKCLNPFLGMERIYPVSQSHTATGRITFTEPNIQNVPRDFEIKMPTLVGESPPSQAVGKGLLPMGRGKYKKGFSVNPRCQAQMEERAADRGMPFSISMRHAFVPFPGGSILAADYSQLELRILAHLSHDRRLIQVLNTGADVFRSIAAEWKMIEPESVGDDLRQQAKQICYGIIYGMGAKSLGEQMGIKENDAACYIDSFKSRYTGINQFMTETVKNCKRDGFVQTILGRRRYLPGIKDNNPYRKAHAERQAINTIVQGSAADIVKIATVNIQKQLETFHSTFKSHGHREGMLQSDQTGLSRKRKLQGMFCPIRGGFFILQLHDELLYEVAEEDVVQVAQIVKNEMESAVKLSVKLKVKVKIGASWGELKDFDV
# Results from cells or extracts need not show a direct contact.
# Biological target: DNA polymerase theta (POLQ)-NanoLuc fusion (Homo sapiens) (UniProt O75417)
# Assay: binding assay
# Conditions: meaning not stated in the examples, probably PS, protein in cells, folded or branched DNA
Sequence,"binding result (linkages marked * in the printed sequence (T*A*G*CGAAGGATGTGAACCTAATCCCTGCTCCCGCGGCC*G*A*T*C*T*G*C*C*G*GCCGCGGGA*G*C*A), indirect: electroporated DNA potentiates NanoBRET of pol-domain tracer 9686 in live HEK293 cells (coordinative binding))","binding result (linkages marked * in the printed sequence (C*C*T*AATCCCTGCTCCCGCGGCC*G*A*T*C*T*G*C*C*G*GCCGCGGGA*G*C*A), indirect: delivered DNA potentiates NanoBRET of tracers 9686/9625 in HEK293 cells, behaves similarly to Lanky, printed sequence differs from SEQ 4 by one base, variant of Lanky (Lanky 1/Lanky 2) oligonucleotide)"
TAGCGAAGGATGTGAACCTAATCCCTGCTCCCGCGGCCGATCTGCCGGCCGCGGGAGCA [Lanky (Lanky 1/Lanky 2) oligonucleotide],binds,
CCTAATCCCTGCTCCCGCGGCCGATCTGCCGGCCGCGGGAGCA [Stubby oligonucleotide],,binds
